In general, IC50 refers to the concentration needed to halve the response being measured.

Amino acid sequences for entries named in this document (tags omitted). A change or cut given only in a name is not applied to a line headed by its entry.
UniProt P48736: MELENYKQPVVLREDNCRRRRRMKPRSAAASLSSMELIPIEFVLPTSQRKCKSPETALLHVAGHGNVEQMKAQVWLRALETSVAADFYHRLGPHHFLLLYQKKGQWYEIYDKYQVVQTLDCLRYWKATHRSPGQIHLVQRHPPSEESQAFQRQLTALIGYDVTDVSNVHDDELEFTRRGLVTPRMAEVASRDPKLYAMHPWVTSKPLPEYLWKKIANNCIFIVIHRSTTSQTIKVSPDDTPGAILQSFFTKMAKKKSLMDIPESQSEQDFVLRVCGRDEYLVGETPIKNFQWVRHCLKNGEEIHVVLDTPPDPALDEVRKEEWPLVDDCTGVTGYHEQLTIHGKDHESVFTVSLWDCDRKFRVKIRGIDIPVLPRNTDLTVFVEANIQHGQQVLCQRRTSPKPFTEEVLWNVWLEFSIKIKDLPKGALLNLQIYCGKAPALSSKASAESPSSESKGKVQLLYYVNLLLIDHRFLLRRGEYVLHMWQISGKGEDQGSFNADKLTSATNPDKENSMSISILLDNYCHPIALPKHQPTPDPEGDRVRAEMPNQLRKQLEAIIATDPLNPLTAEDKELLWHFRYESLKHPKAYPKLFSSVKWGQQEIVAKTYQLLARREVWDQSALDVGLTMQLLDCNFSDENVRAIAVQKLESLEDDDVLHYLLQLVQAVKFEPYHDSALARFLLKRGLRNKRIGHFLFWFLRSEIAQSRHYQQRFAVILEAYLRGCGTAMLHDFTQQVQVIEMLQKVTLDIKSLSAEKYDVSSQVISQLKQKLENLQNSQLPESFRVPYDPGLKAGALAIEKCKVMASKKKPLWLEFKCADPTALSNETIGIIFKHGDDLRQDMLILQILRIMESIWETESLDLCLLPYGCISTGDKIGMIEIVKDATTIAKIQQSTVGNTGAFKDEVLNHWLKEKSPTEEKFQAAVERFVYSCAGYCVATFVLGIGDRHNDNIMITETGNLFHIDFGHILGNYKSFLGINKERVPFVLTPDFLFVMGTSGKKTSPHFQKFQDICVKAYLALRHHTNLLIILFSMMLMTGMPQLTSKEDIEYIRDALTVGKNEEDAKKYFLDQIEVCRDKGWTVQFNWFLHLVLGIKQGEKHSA

Assay [1] deals with T1, PI 3-kinase gamma (Homo sapiens, UniProt P48736). The assay is described as follows: Cellular U937 AKT assay K1 (MSD). Conditions: U937 cells, K1 format; read-out: Assay K1 PI3Kγ IC50. The format is cell-based.
The target in assay [2] is T1, PI 3-kinase gamma. Nature of the assay: TR-FRET Adapta assay, assay E. The format is biochemical. Conditions: read-out: Assay E PI3Kγ IC50. A general note: TR-FRET usually uses a lanthanide donor and a delayed reading to cut background.
Assay [3] concerns the target T1, PI 3-kinase gamma. Nature of the assay: Cellular U937 AKT assay K2 (HTRF). The class given is cell-based. Conditions: U937 cells, K2 format; read-out: Assay K2 PI3Kγ IC50.

`Cc1ccc(S(=O)(=O)NCC(C)(C)O)cc1-c1cnc(N)c(-n2cncn2)n1` [Example 6, 3-(5-Amino-6-(1H-1,2,4-triazol-1-yl)pyrazin-2-yl)-N-(2-hydroxy-2-methylpropyl)-4-methylbenzenesulfonamide]: the values for the half-inhibitory concentration (IC50) in assay [1], in assay [2] and in assay [3] were 366 nM, 39 nM and 215 nM, respectively.
`Cc1ccc(S(=O)(=O)NCC(C)(C)O)cc1-c1cnc(N)c(-c2cnn(C)n2)n1` [Example 18, 3-[5-Amino-6-(2-methyl-2H-[1,2,3]triazol-4-yl)-pyrazin-2-yl]-N-(2-hydroxy-2-methyl-propyl)-4-methyl-benzenesulfonamide]: the IC50 in assay [1] came out at 145 nM; in assay [2], 31 nM; in assay [3] it was 207 nM.
